Experimental data published in US4835252A (The Salk Institute Biotechnology/Industrial Associates, Inc., priority 1987, dated 1989).

Experiment: general procedure: Boc solid-phase peptide synthesis; HOBT
Details: whole synthesis, scale 0.5 mmol

Substance: HSDAVFSDSYSRFRRMAVRR -Y-L-S-N-V-L-T-(NH2)
- crude mass: 695 mg
